Test results reported in patent publication US20080319083A1, “MEDICINE FOR TRANSNASAL ADMINISTRATION” (priority 2006, published 2008).
Counter-ions that a name gives are not always drawn. For at least one compound, name, drawing or mass did not settle the structure.

Legend:
Wistar male rats [1] = assay: Forced swimming test, oral vs transnasal with chitosan (Test Example 1); assay type: in vivo; conditions: rat forced swimming test
Wistar male rats [2] = assay: Forced swimming test, oral vs transnasal (Test Example 5); assay type: in vivo

CCN(CC)C(=O)C1(c2ccccc2)CC1CN (racemic) [milnacipran hydrochloride, cis-(±)-2-(aminomethyl)-N,N-diethyl-1-phenyl-cyclopropanecarboxyamide] was tested, and the “antidepressant effect (rate of immobility time) in relation to AUC, oral” value (Wistar male rats [1]; oral administration) was “increased as AUC increased”, the “antidepressant effect (rate of immobility time) in relation to AUC, transnasal” value (Wistar male rats [1]; transnasal administration compared with oral) was “stronger than that in the oral administration at the same value of AUC” and the “effect for shortening the immobilization time, transnasal administration group vs oral administration group” value (Wistar male rats [2]; rat forced swimming test) was “stronger than that of the oral administration group”. For the same compound, the “effect on immobilization time, transnasal 10 mg/kg compared with oral 30 mg/kg” value (Wistar male rats [2]; rat forced swimming test) was “almost the same effects”, the “effect on immobilization time, transnasal 30 mg/kg compared with oral 60 mg/kg” value (Wistar male rats [2]; rat forced swimming test) was “almost the same effects” and the “immobilization time in the forced swimming test” value (Wistar male rats [2]; rat, oral 10, 30, 60 mg/kg and transnasal 10, 30 mg/kg, regardless of administration routes) was “significant dose-dependent effect for shortening the immobilization times”.
